Taken from: PubChem BioAssay AID1159584 (Peter MacCallum Cancer Centre, 2016)
Screen: 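Genes that CDH1-null MCF10A cells selectively depend on to survive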 (primary screen). Cells: human MCF10A breast epithelial cells, parental and CDH1-null. Reagents: siRNA against human genes. Measurement: 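Cell viability by CellTiter-Glo ATP luminescence, each line scaled to the mean of mock wells across plates, then CDH1-null over parental ratio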. Direction: CDH1-null / parental viability ratio: higher = CDH1-null cells survive relatively better than parental; CDH1-null viability vs mock: higher = more viable CDH1-null cells; parental viability vs mock: higher = more viable parental cells.
The whole screen tested about 18,000 reagents; this is a random part of them. Not given: the amount of reagent, the time to read-out.

target gene | CDH1-null / parental viability ratio | CDH1-null viability vs mock (fraction of mock) | parental viability vs mock (fraction of mock)
LPIN2 (GeneID 9663) | 0.91 | 0.6 | 0.66
APEH (GeneID 327) | 1.09 | 1 | 0.92
FBXO42 (GeneID 54455) | 0.98 | 0.65 | 0.66
FZD8 (GeneID 8325) | 0.73 | 0.66 | 0.9
GPX3 (GeneID 2878) | 0.86 | 0.38 | 0.44
FGF7 (GeneID 2252) | 0.92 | 0.74 | 0.8
SYNGR3 (GeneID 9143) | 1.23 | 1 | 0.81
CAPN2 (GeneID 824) | 0.92 | 0.47 | 0.51
CHRDL2 (GeneID 25884) | 0.84 | 0.84 | 1
KATNIP (GeneID 23247) | 1.07 | 0.96 | 0.9
CDH15 (GeneID 1013) | 1.13 | 0.81 | 0.72
IFNK (GeneID 56832) | 1.26 | 0.44 | 0.35
OR8B3 (GeneID 390271) | 0.9 | 0.76 | 0.84
TRIM15 (GeneID 89870) | 1.03 | 0.96 | 0.93
MALT1 (GeneID 10892) | 1.02 | 0.63 | 0.62
MYO5B (GeneID 4645) | 1.1 | 1.1 | 1
CHRNA9 (GeneID 55584) | 1.17 | 1.12 | 0.96
TMEM17 (GeneID 200728) | 0.87 | 0.7 | 0.8
RAB7A (GeneID 7879) | 1 | 0.92 | 0.92
CPNE4 (GeneID 131034) | 0.89 | 0.8 | 0.9
BCL11A (GeneID 53335) | 0.95 | 0.76 | 0.8
ATP6V0A2 (GeneID 23545) | 1.21 | 1.14 | 0.94
SSR1 (GeneID 6745) | 1.18 | 0.8 | 0.68
PRORSD1P (GeneID 344405) | 1.12 | 0.64 | 0.57
TCERG1 (GeneID 10915) | 0.92 | 0.96 | 1.04
ALOXE3 (GeneID 59344) | 1.08 | 1.1 | 1.02
LINC00518 (GeneID 221718) | 0.96 | 0.51 | 0.53
TBX15 (GeneID 6913) | 0.86 | 0.74 | 0.86
ZNF347 (GeneID 84671) | 0.61 | 0.59 | 0.97
CST9L (GeneID 128821) | 0.9 | 0.64 | 0.71
GNG12 (GeneID 55970) | 0.92 | 0.72 | 0.78
SLC41A2 (GeneID 84102) | 0.69 | 0.52 | 0.75
ZNF223 (GeneID 7766) | 0.91 | 0.73 | 0.8
EPRS1 (GeneID 2058) | 1 | 0.98 | 0.98
FAM110B (GeneID 90362) | 0.95 | 0.83 | 0.87
SLC5A11 (GeneID 115584) | 1.21 | 0.99 | 0.82
AAMP (GeneID 14) | 1.13 | 0.54 | 0.48
EBI3 (GeneID 10148) | 0.56 | 0.54 | 0.96
LINC00452 (GeneID 643365) | 0.72 | 0.55 | 0.76
SLC5A9 (GeneID 200010) | 1 | 0.8 | 0.8
NOTCH1 (GeneID 4851) | 1 | 1 | 1
TRIM46 (GeneID 80128) | 0.79 | 0.85 | 1.08
ETNK1 (GeneID 55500) | 0.94 | 0.82 | 0.87
OR9I1 (GeneID 219954) | 1.05 | 0.63 | 0.6
CMAS (GeneID 55907) | 0.89 | 0.57 | 0.64
LUZP1 (GeneID 7798) | 1.06 | 0.68 | 0.64
KAT7 (GeneID 11143) | 1.47 | 1.03 | 0.7
KLHDC9 (GeneID 126823) | 0.76 | 0.68 | 0.89
GBE1 (GeneID 2632) | 1.21 | 1.29 | 1.07
GOLIM4 (GeneID 27333) | 1.11 | 0.91 | 0.82
CBLN3 (GeneID 643866) | 1.16 | 0.79 | 0.68
EDNRA (GeneID 1909) | 1.29 | 1.1 | 0.85
CAMK2D (GeneID 817) | 1.07 | 1.01 | 0.94
RPS20 (GeneID 6224) | 1.36 | 0.3 | 0.22
HSPB8 (GeneID 26353) | 1.24 | 1.05 | 0.85
L1CAM (GeneID 3897) | 0.75 | 0.4 | 0.53
FAHD1 (GeneID 81889) | 0.87 | 0.75 | 0.86
TTC31 (GeneID 64427) | 1.05 | 0.58 | 0.55
HPD (GeneID 3242) | 0.93 | 0.79 | 0.85
TOX2 (GeneID 84969) | 1.01 | 1.01 | 1
IPO5 (GeneID 3843) | 0.92 | 1.08 | 1.18
HLA-DQA2 (GeneID 3118) | 1.06 | 0.56 | 0.53
SLC6A7 (GeneID 6534) | 1.35 | 0.92 | 0.68
FJX1 (GeneID 24147) | 0.8 | 0.69 | 0.86
APOA5 (GeneID 116519) | 1.13 | 1.11 | 0.98
RABEP1 (GeneID 9135) | 1.23 | 0.92 | 0.75
GUCA1A (GeneID 2978) | 0.64 | 0.45 | 0.7
CBLL1 (GeneID 79872) | 0.79 | 0.62 | 0.78

Reformatted: results already given.
{"target gene":"ALOXE3 (GeneID 59344)","CDH1-null / parental viability ratio":1.08,"CDH1-null viability vs mock (fraction of mock)":1.1,"parental viability vs mock (fraction of mock)":1.02}
{"target gene":"LINC00518 (GeneID 221718)","CDH1-null / parental viability ratio":0.96,"CDH1-null viability vs mock (fraction of mock)":0.51,"parental viability vs mock (fraction of mock)":0.53}
{"target gene":"TBX15 (GeneID 6913)","CDH1-null / parental viability ratio":0.86,"CDH1-null viability vs mock (fraction of mock)":0.74,"parental viability vs mock (fraction of mock)":0.86}
{"target gene":"ZNF347 (GeneID 84671)","CDH1-null / parental viability ratio":0.61,"CDH1-null viability vs mock (fraction of mock)":0.59,"parental viability vs mock (fraction of mock)":0.97}
